Results are given in words; binding and its absence hold for the method and conditions named. Some entries that bind do so weakly or less than the wild type. Values belong to the binder of their own block, whether it stands above or below them.
Legend:
[1] = target: T1, breast cancer anti-estrogen resistance 3 (BCAR3) (human) (UniProt O75815); assay: two-hybrid; pairwise matrix Y2H in MaV203 yeast; baits (BC-apoptosis genes) in pDEST32, preys (PSMC3IP, EPSTI1) in pDEST22; reporters HIS3 (3AT), URA3, HIS3/URA3 and LacZ; high-confidence = at least two reporters or repeated in biological replica screens
T1 sequence: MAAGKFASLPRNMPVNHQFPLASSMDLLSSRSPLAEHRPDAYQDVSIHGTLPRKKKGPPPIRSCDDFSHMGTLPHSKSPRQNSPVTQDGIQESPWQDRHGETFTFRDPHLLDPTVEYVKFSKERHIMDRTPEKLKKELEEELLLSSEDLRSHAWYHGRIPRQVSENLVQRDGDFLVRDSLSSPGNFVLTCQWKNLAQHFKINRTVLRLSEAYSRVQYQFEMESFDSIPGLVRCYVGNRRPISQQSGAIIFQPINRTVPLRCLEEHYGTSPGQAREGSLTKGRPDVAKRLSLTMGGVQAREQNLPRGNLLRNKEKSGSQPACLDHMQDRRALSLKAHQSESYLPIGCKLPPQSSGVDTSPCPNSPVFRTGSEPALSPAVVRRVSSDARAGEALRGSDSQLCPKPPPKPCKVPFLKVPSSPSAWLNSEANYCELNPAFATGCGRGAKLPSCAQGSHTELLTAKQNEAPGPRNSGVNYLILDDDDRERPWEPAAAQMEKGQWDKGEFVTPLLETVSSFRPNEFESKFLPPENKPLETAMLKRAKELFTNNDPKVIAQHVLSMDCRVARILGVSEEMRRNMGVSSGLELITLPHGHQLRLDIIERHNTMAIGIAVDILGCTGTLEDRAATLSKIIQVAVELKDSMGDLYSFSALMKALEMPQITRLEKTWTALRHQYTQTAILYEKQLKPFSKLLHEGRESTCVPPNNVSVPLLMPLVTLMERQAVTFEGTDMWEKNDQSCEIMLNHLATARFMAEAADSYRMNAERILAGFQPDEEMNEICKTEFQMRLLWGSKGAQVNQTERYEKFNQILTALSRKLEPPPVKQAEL

By UniProt entry, the sequences of proteins in these tests, tags left out.
UniProt Q14790: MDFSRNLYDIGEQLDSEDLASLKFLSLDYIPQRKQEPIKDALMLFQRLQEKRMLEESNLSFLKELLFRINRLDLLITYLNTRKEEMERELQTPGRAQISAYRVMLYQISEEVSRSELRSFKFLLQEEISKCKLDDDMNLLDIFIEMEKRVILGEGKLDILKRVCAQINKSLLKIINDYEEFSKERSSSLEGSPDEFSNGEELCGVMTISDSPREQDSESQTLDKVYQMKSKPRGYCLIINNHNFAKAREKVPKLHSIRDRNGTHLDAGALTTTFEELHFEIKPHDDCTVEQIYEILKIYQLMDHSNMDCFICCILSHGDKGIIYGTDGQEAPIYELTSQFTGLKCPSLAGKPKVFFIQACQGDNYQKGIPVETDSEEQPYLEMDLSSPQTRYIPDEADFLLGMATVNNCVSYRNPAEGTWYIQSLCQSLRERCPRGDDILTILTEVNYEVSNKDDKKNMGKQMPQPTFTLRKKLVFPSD
UniProt P31749: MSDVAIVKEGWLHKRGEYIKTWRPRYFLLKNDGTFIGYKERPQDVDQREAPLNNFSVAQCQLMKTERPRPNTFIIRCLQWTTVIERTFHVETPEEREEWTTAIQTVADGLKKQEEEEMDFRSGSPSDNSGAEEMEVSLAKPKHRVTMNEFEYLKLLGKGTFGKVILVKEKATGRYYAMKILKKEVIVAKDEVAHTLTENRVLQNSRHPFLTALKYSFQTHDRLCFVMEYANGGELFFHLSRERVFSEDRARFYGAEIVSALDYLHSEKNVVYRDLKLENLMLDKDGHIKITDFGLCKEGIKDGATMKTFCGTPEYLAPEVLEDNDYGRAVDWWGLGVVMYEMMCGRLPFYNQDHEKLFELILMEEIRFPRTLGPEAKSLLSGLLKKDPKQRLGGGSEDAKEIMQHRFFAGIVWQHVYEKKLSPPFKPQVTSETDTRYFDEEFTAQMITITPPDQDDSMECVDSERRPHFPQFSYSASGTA

[2] = target: caspase 8 (CASP8) (human) (UniProt Q14790); assay: as above
[3] = target: AKT1 (human) (UniProt P31749); assay: two-hybrid; reported as 'unpublished data'; told within the Y2H results, AKT1 cloned as a Y2H bait

binding [1]: binds
binding [2]: binds
B1: proteasome 26S subunit ATPase 3 interacting protein (PSMC3IP) (protein, UniProt Q9P2W1 1-217)
chain: MSKGRAEAAAGAAGILLRYLQEQNRPYSSQDVFGNLQREHGLGKAVVVKTLEQLAQQGKIKEKMYGKQKIYFADQDQFDMVSDADLQVLDGKIVALTAKVQSLQQSCRYMEAELKELSSALTTPEMQKEIQELKKECAGYRERLKNIKAATNHVTPEEKEQVYRERQKYCKEWRKRKRMATELSDAILEGYPKSKKQFFEEVGIETDEDYNVTLPDP

binding [3]: binds
binding [1]: binds
binding [2]: binds
B2: epithelial-stromal interaction 1 (EPSTI1) (protein, UniProt Q96J88 1-318)
chain: MNTRNRVVNSGLGASPASRPTRDPQDPSGRQGELSPVEDQREGLEAAPKGPSRESVVHAGQRRTSAYTLIAPNINRRNEIQRIAEQELANLEKWKEQNRAKPVHLVPRRLGGSQSETEVRQKQQLQLMQSKYKQKLKREESVRIKKEAEEAELQKMKAIQREKSNKLEEKKRLQENLRREAFREHQQYKTAEFLSKLNTESPDRSACQSAVCGPQSSTWKLPILPRDHSWARSWAYRDSLKAEENRKLQKMKDEQHQKSELLELKRQQQEQERAKIHQTEHRRVNNAFLDRLQGKSQPGGLEQSGGCWNMNSGNSWGI

From paper PMC4295872
